± gives the uncertainty stated by the source. Many of these values have a large error.
Assay: self-splicing fitness, log relative to wild type (ln ratio); higher = more splicing; Tetrahymena group I intron in knt gene, E. coli kanamycin selection, DiMSum; sequences stand for … in CUCUCU…GGAGGGAAAAGUUAUCAGGCAUGCACCUGGUAGCUAGUCUUUAAACCAAUAGAUUGCAUCGGUUUAAAAGGCAAGACCGUCAAAUUGCGGGAAAGGGGUCAACAGCCGUUCAGUACCAAGUCUCAGGGGAAACUUUGAGAUGGCCUUGCAAAGGGUAUGGUAAUAAGCUGACGGACAUGGUCCUAACCACGCAGCCAAGUCCUAAGUCAACAGAUCUUCUGUUGAUAUGGAUGCAGUUCACAGACUAAAUGUCGGUCGGGGAAGAUGUAUUCUUCUCAUAAGAUAUAGUCGGACCUCUCCUUAAUGGGAGCUAGCGGAUGAAGUGAUGCAACACUGGAGCCGCUGGGAACUAAUUUGUAUGCGAAAGUAUAUUGAUUAGUUUUGGAGUACUCGUGGUCG
Method in brief: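 A randomised library covering all eight P1ex-region intron nucleotides was built with the intron in the knt kanamycin-resistance gene on pET-22b(+) and held in E. coli BL21(DE3). Cells were grown overnight at 37°C or 30°C on LB agar, with or without 25 μg/mL kanamycin, plus 100 μg/mL carbenicillin, 50 μM IPTG and 0.2% rhamnose, and pooled colonies were amplicon-sequenced on an Illumina HiSeq 2500. DiMSum fitness is the error-weighted combination of wild-type-normalised replicate fold changes, kanamycin versus none.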

Sequence | self-splicing fitness (ln) (30 °C) | self-splicing fitness (ln) (37 °C)
AGAGAGCAAUAUUACGAGAG | -4.04 ± 0.73 | –
UCGGAGCAAUAUUACGUAGC | -4.31 ± 1 | -1.89 ± 0.57
GGCGAGCAAUAUUACGCGCG | -4.04 ± 0.52 | –
CAGUAGCAAUAUUACGAAUU | – | -3.43 ± 0.52
UUUGAGCAAUAUUACGCCUU | – | -2.2 ± 0.45
GACGAGCAAUAUUACGUCAA | – | -4.24 ± 0.72
UUAUAGCAAUAUUACGCCAC | -0.767 ± 0.54 | –
CGAGAGCAAUAUUACGGAGC | – | -2.67 ± 0.54
CCAGAGCAAUAUUACGUGAC | -3.36 ± 0.19 | -3.93 ± 0.46
CUCUAGCAAUAUUACGAAAC | – | -1.9 ± 0.51
AGCCAGCAAUAUUACGAAUC | -3.16 ± 1 | –
GAUGAGCAAUAUUACGGACG | -4.75 ± 0.72 | –
UCGGAGCAAUAUUACGAGAA | -3.56 ± 0.63 | -2.93 ± 0.74
UGGGAGCAAUAUUACGCGAU | -3.12 ± 1.1 | –
GCGCAGCAAUAUUACGCGAU | -2.97 ± 0.53 | –
AGCGAGCAAUAUUACGUUGA | -4.28 ± 0.51 | –
CGCGAGCAAUAUUACGGACA | -2.78 ± 0.64 | –
CAGGAGCAAUAUUACGCAUA | -4.16 ± 0.72 | –
GUCAAGCAAUAUUACGCCAA | -2.79 ± 1.2 | –
CGUUAGCAAUAUUACGACGC | -1.98 ± 0.86 | –
ACUCAGCAAUAUUACGAUCC | – | -0.693 ± 0.5
UCGGAGCAAUAUUACGAACC | -3.7 ± 1.1 | -2.47 ± 1.1
UGAUAGCAAUAUUACGUAUC | -2.67 ± 0.48 | -3.39 ± 1
AGCGAGCAAUAUUACGCACG | – | -2.32 ± 0.67

Single entries from above:
Entry of AGCCAGCAAUAUUACGAAUC under self-splicing fitness (ln) (30 °C): -3.16 ± 1
Entry of UGAUAGCAAUAUUACGUAUC under self-splicing fitness (ln) (30 °C): -2.67 ± 0.48

Additional records

Sequence | self-splicing fitness (ln) (30 °C) | self-splicing fitness (ln) (37 °C)
UGAUAGCAAUAUUACGCAAG | -4.42 ± 0.59 | –
GGGUAGCAAUAUUACGUAUG | -4.31 ± 0.72 | –
UCGGAGCAAUAUUACGGCGA | -1.1 ± 0.18 | -0.689 ± 0.23
UAUAAGCAAUAUUACGAGAC | -3.61 ± 0.75 | -2.66 ± 0.76
GUUGAGCAAUAUUACGAACU | -4.3 ± 0.72 | –
CGCAAGCAAUAUUACGACUU | -4.41 ± 0.51 | –
AACUAGCAAUAUUACGGUCA | -0.313 ± 0.074 | 0.442 ± 0.093
UAAAAGCAAUAUUACGCCAC | -3.09 ± 0.53 | –
UGUUAGCAAUAUUACGUAGA | -2.29 ± 0.12 | -0.809 ± 0.14
CACUAGCAAUAUUACGAGAC | – | -2.31 ± 1.1
CCUGAGCAAUAUUACGAUUA | -3.35 ± 0.82 | –
UGCAAGCAAUAUUACGCAAC | -1.9 ± 0.26 | -2.11 ± 0.28
GGUCAGCAAUAUUACGAGGA | -3.47 ± 0.54 | –
GUCCAGCAAUAUUACGGCAG | -4.98 ± 0.51 | –
ACAGAGCAAUAUUACGUUGC | – | -3.62 ± 0.52
CGGGAGCAAUAUUACGAUGA | -3.57 ± 1 | –
UCUGAGCAAUAUUACGAACC | -2.02 ± 1.2 | –
AGUCAGCAAUAUUACGGUCU | -0.851 ± 0.06 | -0.146 ± 0.068
UAGGAGCAAUAUUACGAGAC | – | -1.31 ± 0.53
CCAGAGCAAUAUUACGGUCA | -3.91 ± 0.62 | -2.87 ± 0.53
AGAGAGCAAUAUUACGCAGA | – | -2.39 ± 0.55
AUCGAGCAAUAUUACGCAAC | -3.02 ± 0.65 | -1.83 ± 1.1
UAUAAGCAAUAUUACGGCAU | -0.623 ± 0.077 | -0.223 ± 0.098
AGUAAGCAAUAUUACGGAUG | -3.1 ± 0.25 | -2.2 ± 0.26

Record cards, from the list above. Values in the order: self-splicing fitness (ln) (30 °C)	self-splicing fitness (ln) (37 °C)
AUCGAGCAAUAUUACGCAAC is listed with -3.02 ± 0.65	-1.83 ± 1.1
UAUAAGCAAUAUUACGAGAC is listed with -3.61 ± 0.75	-2.66 ± 0.76
GGGUAGCAAUAUUACGUAUG is listed with -4.31 ± 0.72	–
UAUAAGCAAUAUUACGGCAU is listed with -0.623 ± 0.077	-0.223 ± 0.098

Additional results follow:

Sequence | self-splicing fitness (ln) (30 °C) | self-splicing fitness (ln) (37 °C)
UCGCAGCAAUAUUACGGUCC | -4.51 ± 0.58 | –
UUGCAGCAAUAUUACGCAAC | -5.62 ± 0.71 | –
UUAUAGCAAUAUUACGGAAC | -3.09 ± 0.36 | -1.71 ± 0.44
GCAGAGCAAUAUUACGGAAA | -3.06 ± 0.62 | –
GGGGAGCAAUAUUACGUGGU | -1.73 ± 0.65 | -2.85 ± 0.76
UAAGAGCAAUAUUACGAACC | -1.95 ± 0.82 | –
CACCAGCAAUAUUACGGUUC | -2.02 ± 0.065 | -1.25 ± 0.085
CAAUAGCAAUAUUACGUCCC | – | -1.61 ± 0.51
GGAGAGCAAUAUUACGGCGG | -4 ± 1 | -2.87 ± 0.61
AUUAAGCAAUAUUACGCGAG | -1.27 ± 0.1 | -0.38 ± 0.097
UAGUAGCAAUAUUACGAGGA | -1.94 ± 0.51 | –
CGGUAGCAAUAUUACGCUCA | -0.279 ± 0.15 | -0.399 ± 0.21
CGUGAGCAAUAUUACGCAAU | -2.52 ± 0.14 | -2.75 ± 0.25
CGCUAGCAAUAUUACGGCGC | – | -2.7 ± 0.54
UUGGAGCAAUAUUACGAGAC | -3.74 ± 0.62 | –
AUUGAGCAAUAUUACGGGUC | – | -1.64 ± 0.66
CUGCAGCAAUAUUACGAUUC | -4.39 ± 0.51 | –
UGGCAGCAAUAUUACGGAGC | -3.3 ± 0.53 | -2.9 ± 1.1
GUGAAGCAAUAUUACGCAGC | -0.868 ± 1.4 | -1.37 ± 0.87
GUUGAGCAAUAUUACGUGAA | -3.95 ± 0.59 | –
CAAGAGCAAUAUUACGCGGA | -2.87 ± 0.5 | -2.5 ± 0.54
AUAGAGCAAUAUUACGCCCC | -1.69 ± 0.91 | –
GAGGAGCAAUAUUACGUACG | – | -1.87 ± 0.52
CCUAAGCAAUAUUACGAACU | -3.44 ± 0.48 | -1.99 ± 0.22

Sequence | self-splicing fitness (ln) (30 °C) | self-splicing fitness (ln) (37 °C)
UUUUAGCAAUAUUACGUAGC | -3.52 ± 0.62 | -1.5 ± 0.51
GUCGAGCAAUAUUACGUACC | -2.42 ± 1.2 | -1.98 ± 0.81
UACAAGCAAUAUUACGACCC | – | -1.33 ± 0.87
GACCAGCAAUAUUACGCUAC | -4.89 ± 0.51 | –
GGUUAGCAAUAUUACGCGGU | -2.85 ± 0.49 | -2.36 ± 0.35
AAAGAGCAAUAUUACGGGGA | -2.48 ± 0.35 | -1.81 ± 0.28
GGAGAGCAAUAUUACGAUGG | – | -2.31 ± 1.1
AUAUAGCAAUAUUACGUCAC | -3.36 ± 0.66 | -1.01 ± 0.51
AUGGAGCAAUAUUACGCUUC | -2.91 ± 0.75 | –
CCACAGCAAUAUUACGGCAU | -3.72 ± 0.16 | -2.54 ± 0.18
UCGAAGCAAUAUUACGCUAA | -3.81 ± 0.53 | –
GUGUAGCAAUAUUACGACCG | 1.08 ± 1 | –
GCGGAGCAAUAUUACGUAAC | – | -1.45 ± 0.54
UGGUAGCAAUAUUACGUUAC | – | -1.78 ± 0.65
CUAUAGCAAUAUUACGAACU | -3.67 ± 0.43 | -3.19 ± 0.74
ACAAAGCAAUAUUACGUAGC | -2.35 ± 0.086 | -2.01 ± 0.12
GAAUAGCAAUAUUACGCGGG | -3.86 ± 1 | –
CUAGAGCAAUAUUACGGUAC | – | -3.82 ± 0.6
GUACAGCAAUAUUACGAUCG | -1.67 ± 0.12 | -0.932 ± 0.16
UCCGAGCAAUAUUACGUCAC | – | -1.57 ± 0.55
ACGAAGCAAUAUUACGUUCG | -1.3 ± 0.083 | -0.906 ± 0.11
AAUAAGCAAUAUUACGUGCG | -1.1 ± 0.065 | -0.488 ± 0.083
GUCGAGCAAUAUUACGCCUA | -2.98 ± 0.79 | –
AUAGAGCAAUAUUACGAUGC | -2.3 ± 0.6 | –

Sequence | self-splicing fitness (ln) (30 °C) | self-splicing fitness (ln) (37 °C)
AAAAAGCAAUAUUACGCCAC | -1.93 ± 0.52 | –
CGGGAGCAAUAUUACGCUAA | – | -3.15 ± 0.73
CUAGAGCAAUAUUACGUAAG | -0.628 ± 0.06 | 0.154 ± 0.089
GGAAAGCAAUAUUACGGCCC | -0.297 ± 0.65 | –
AGGAAGCAAUAUUACGUAGC | -1.27 ± 0.82 | –
CAAGAGCAAUAUUACGGGAC | -4.03 ± 0.61 | -2.75 ± 0.62
GAGGAGCAAUAUUACGUCGC | -2.26 ± 0.63 | –
GAGAAGCAAUAUUACGCGUA | -1.03 ± 0.12 | -1.1 ± 0.13
CUGUAGCAAUAUUACGCAUA | -2.83 ± 0.47 | -2.43 ± 0.41
CGGAAGCAAUAUUACGACGC | -2.39 ± 0.52 | –
UUGGAGCAAUAUUACGGCGA | – | -2.41 ± 0.76
GUAUAGCAAUAUUACGCAUC | -2.15 ± 0.17 | -0.982 ± 0.13
CCUAAGCAAUAUUACGCUAC | -3.77 ± 0.55 | -1.53 ± 0.31
UGCUAGCAAUAUUACGAUGC | – | -4.34 ± 0.59
GCCUAGCAAUAUUACGCCGA | – | -1.15 ± 0.57
GUCAAGCAAUAUUACGCACC | -1.96 ± 1.2 | –
CGGAAGCAAUAUUACGAGUA | -3.83 ± 0.6 | –
CGGAAGCAAUAUUACGCAAA | -3.8 ± 1 | –
CAAGAGCAAUAUUACGUCCA | -3.57 ± 1 | -1.78 ± 1.2
UCAUAGCAAUAUUACGGCUU | -4.38 ± 0.6 | –
GAUCAGCAAUAUUACGCCAC | -2.09 ± 1.4 | –
UCAGAGCAAUAUUACGUUCC | -3.84 ± 0.47 | -2.57 ± 0.49
UAGGAGCAAUAUUACGCACA | -0.278 ± 0.33 | -0.212 ± 0.38
UAGUAGCAAUAUUACGCCGC | -4.57 ± 0.72 | -2.43 ± 0.54

Source: the supplement of paper PMC7877785
